Source: PMC10711550
These are yes or no findings as the source states them, for the method shown. Some entries that bind do so weakly or less than the wild type.

Protein sequences, listed by entry. Tags and fused reporters are not part of them. Residues count along the entry.
DNA-binding domain of SOX2 (aa 39-127) (P48431, residues 39-127): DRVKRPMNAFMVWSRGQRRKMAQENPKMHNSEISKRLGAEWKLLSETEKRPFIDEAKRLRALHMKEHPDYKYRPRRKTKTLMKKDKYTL
C-terminal domain of SOX2 (aa 150-317) (P48431, residues 150-317): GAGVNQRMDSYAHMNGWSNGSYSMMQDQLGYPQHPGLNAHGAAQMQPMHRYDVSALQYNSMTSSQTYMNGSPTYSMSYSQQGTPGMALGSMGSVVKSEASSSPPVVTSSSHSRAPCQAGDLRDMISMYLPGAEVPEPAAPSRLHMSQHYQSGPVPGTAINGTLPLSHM
p300 KIX domain (aa 566-646) (Q09472, residues 566-646): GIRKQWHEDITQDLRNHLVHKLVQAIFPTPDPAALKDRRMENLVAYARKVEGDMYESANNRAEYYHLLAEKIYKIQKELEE
p300 bromodomain (aa 1067-1139) (Q09472, residues 1067-1139): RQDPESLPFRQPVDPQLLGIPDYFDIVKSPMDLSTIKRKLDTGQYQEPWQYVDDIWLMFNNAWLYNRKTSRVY

Assays:
[1] = target: DNA-binding domain of SOX2 (aa 39-127) (human) (UniProt P48431); assay: BLI; SOX2DBD or SOX2CTD with p300KIX or p300BD; who was immobilised is not stated (Supplementary Figure 6C, Supplementary Table 3); both purified
[2] = target: C-terminal domain of SOX2 (aa 150-317) (human) (UniProt P48431); assay: as above

| Substance | binding [1] | binding [2] |
| --- | --- | --- |
| p300 KIX domain (aa 566-646) (from UniProt Q09472 566-646) (domain or fragment) | binds | binds weakly |
| p300 bromodomain (aa 1067-1139) (from UniProt Q09472 1067-1139) (domain or fragment) | binds weakly | binds weakly |
